In patent US20250011448A1:

Legend:
insulin [1] = test: ELISA, plate coated with insulin, serial dilution of antibody
insulin [2] = test: non-specific binding ELISA on plate-coated insulin, goat anti-human IgG Fc-AP detection, OD405

| Binder | binding (insulin [1]) | binding (insulin [2]) |
| --- | --- | --- |
| 15H10 chimeric anti-TNFR2 antibody (antibody, V domains shown) VH: DVQLQESGPGLVTPSQSLSLTCSVTGYSITSGYYWNWIRQFPGNKLEWMGYITYDGNNNYNPSLKSRFSITRDTSKNQFFLKLNSVTSEDTATYYCARGDYGDSAMDYWGQGTSVTVSS VL: EIVLTQSPAITAASLGQKVTITCSASSGVNYMHWYQQKSGTSPKPWIYEISKLASGVPARFSGSGSGTSYSLTISSMEAEDAAIYYCQQWNYPLITFGAGTKVELK | no binding | no binding (tested: about 100 ug/ml) |
| 11C1 chimeric anti-TNFR2 antibody (antibody, V domains shown) VH: DVQLRESGPGLVTPSQSLSLTCSVTGYSITSGYYWNWIRQIPGNKLEWMGYITYDGNNNYDPSLKNRISITRDTSKNQFFLTLNSVTSEDTATYYCARGDYGDSAMDYWGQGTSVTVSS VL: EIVLTQSPAITAASLGQKVTITCSASSSVSYMHWYQQKSGTSPKPWIYEISKLASGVPARFSGSGSGTSYSLIISSMEAEDAAIYYCQQWNYPLITFGAGTKLELK | no binding | no binding (tested: about 100 ug/ml) |
| 6F12 chimeric anti-TNFR2 antibody (antibody, V domains shown) VH: QIQLVQSGPELKKPGETVKISCKTSGYTFTIYGMNWVKQAPGKGLKWMGWIHTYTGEPTYADDFKGRFVFSLETSDSTAYLQINNLKSEDMATYFCVRRERYGSFWGQGTLVTVSA VL: DIVLTQSPASLAVSLGQRATISCTASQSVDYGGVSYMNWYQQKPGQPPKLLIYGASNQESGIPVRFSGSGSGTDFTLNIHPVEEEDAATYYCQQSNEDPPTFGAGTKLELK | no binding | – |
| 29G3 chimeric anti-TNFR2 antibody (antibody, V domains shown) VH: EVMLVESGGASVKPGGSLKLSCAASGFTFSNFAMSWVRQTPEKRLEWVATIRSGDNYSYYSDNVKGRFTISRDNARNTLYLQMSSLRSKDTSIYYCARNWDKVFDYWGQGTTLTVSS VL: DIVLTQSPASLAVSLGQRATISCRASESVDSYGYSFMHWYQQKPGQPPKLLIYRASNLKSGIPARFSGSGSRTDFTLTINPVEADDVATYYCQQSNEDHTFGGGTKLEIK | no binding | no binding (tested: about 100 ug/ml) |
| 51B5 chimeric anti-TNFR2 antibody (antibody, V domains shown) VH: QVQLQQSGAELARPGTSVKLSCKASGYTFTDDYIDWVKQRTGQGLEWIGEIYPGSGNTYYNEKFKGKATLTADKSSSTAYMQLSSLTSEDSAVYFCARSQVYGKIAMDHWGQGTSVTVSS VL: DIVLTQSPASLAVSLGQRATISCRASESVDNSGNSFMHWYQQIPGQPPKLLIYRASNLESGIPARFSGSGARTDFTLTIDPVGAVDVATYYCQQSKEDPYTFGGGTKLEIE | no binding | no binding (tested: about 100 ug/ml) |

Other lines, results leading:

| binding (insulin [1]) | binding (insulin [2]) | Binder |
| --- | --- | --- |
| no binding | no binding (tested: about 100 ug/ml) | 85G8.4 chimeric anti-TNFR2 antibody (antibody, V domains shown) VH: EVQLQQSGPELVKPGASVKISCKTSGYTFTDFNMDWVKQSHGKSLEWIGYINPNNGDAAYNQKFKSKATLTVDKSSNTAYMELHSLTSDDSAVYYCARWGWAFAYWGQGTLVTVSA VL: DIVMTQSHKIMSTSVGDRVSITCKASQDVKTAVAWYQQKPGQSPKLLIYATSYRYTGVPDRFTGSGSGTDFTFTISTVQAEDLAVYYCQQHYSIPYTFGGGTKLEIK |
| no binding | no binding (tested: about 100 ug/ml) | 102E4 chimeric anti-TNFR2 antibody (antibody, V domains shown) VH: EVLLQQSGAELVRPGASVKLSCTASGFNIKDDFIHWVQQRPEQGLEWIGRINPSNANTEYAPKFQDKATITTDTSSNTAYLQLSSLTSEDTAVYYCTRNDGYYDGLFYWGQGTTLTVSS VL: DIVMTQSHKFMSSSVGDRVSITCKASQDVGTAVAWYQQKPGQSPKLLIYWASTRHTGVPDRFTGSGSGTDFTLTISNVQSEDLADYFCQQYSSYPFTFGSGTKLEIK |

No constants are given. Whether binding was seen depends on the method and setting.
